No constants are given. Whether binding was seen depends on the method and setting. Some binding calls cover weakened binding; strength is not graded here.
Target: mouse CTLA4-Fc fusion protein (mouse) (UniProt P09793)
Assay: ELISA, plate-coated mCTLA4-Fc, biotinylated B7-1 Fc

- binding: binds
Substance: human B7-1 Fc fusion protein (from UniProt P33681 35-242)
